The nature of the series: general procedure: solution-phase peptide synthesis; HATU / diisopropylethylamine.

In the case of “tert-butyl (S)-(S)-(S)-(S)-(37-(((benzyloxy)carbonyl)amino)-31-oxo-2,5,8,11,14,17,20,23,26,29-decaoxa-32-azaoctatriacontan-38-oyl)glycylglycylglycylglycinate”, for the setting “coupling step”, the step yield turned out to be 79% yield. In turn, “tert-butyl (S)-(S)-(S)-(S)-(37-amino-31-oxo-2,5,8,11,14,17,20,23,26,29-decaoxa-32-azaoctatriacontan-38-oyl)glycylglycylglycylglycinate” registered a step yield (late stage modification step) of 100% yield. Where the note is “late stage modification step”, “tert-butyl L-alanyl-L-alanyl-L-alanyl-L-alaninate” returned a step yield of 82% yield.

In the case of tert-butyl glycylglycylglycylglycinate, for the setting “late stage modification step”, the step yield is 99% yield.

The values above are taken from patent US20260158153A1 (priority 2021, published 2026).
